The other results are listed elsewhere or left out.
Target: T1, OsSMF1 (Oryza sativa, UniProt Q6ZLB0 1-436)
T1 sequence: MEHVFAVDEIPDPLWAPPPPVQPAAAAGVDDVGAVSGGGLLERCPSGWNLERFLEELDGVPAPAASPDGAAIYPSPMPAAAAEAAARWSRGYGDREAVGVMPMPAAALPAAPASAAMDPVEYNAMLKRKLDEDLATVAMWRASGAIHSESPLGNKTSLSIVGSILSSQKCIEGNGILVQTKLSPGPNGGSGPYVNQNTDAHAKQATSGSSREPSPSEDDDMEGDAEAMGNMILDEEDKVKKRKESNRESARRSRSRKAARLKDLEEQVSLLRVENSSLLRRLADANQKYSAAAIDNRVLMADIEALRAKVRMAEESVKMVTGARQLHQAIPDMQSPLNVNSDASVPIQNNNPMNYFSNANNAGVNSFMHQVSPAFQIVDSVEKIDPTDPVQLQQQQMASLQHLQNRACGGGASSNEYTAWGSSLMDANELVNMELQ
Experiment: protein-binding microarray (RPBM); PBS, 2% BSA, 51.3 ng/ul salmon testes DNA, 50 uM zinc acetate, 200 nM TF, 25 C, 1 h; high values mean tight binding
Settings: protein: recombinant; tags: N-terminal polyhistidine and DsRed monomer fusion (pET32a); chain copies: 2; label: CyDye5-dUTP incorporated in the synthesized complementary strand; 3' TTTTT single-stranded linker to array surface; dsDNA, one strand shown
In short: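 Per-feature fluorescence intensity (arbitrary units), read on an Axon 4000B scanner, is the binding signal. Transcription factors carrying an N-terminal polyhistidine tag and DsRed fusion were expressed in E. coli BL21-CodonPlus and purified on Ni–NTA. A custom Agilent array, made double-stranded by primer extension with Cy5-dUTP and blocked with 2% BSA, was incubated with 200 nM protein in PBS, 2% BSA, salmon testes DNA and 50 µM zinc acetate at 25 °C for 1 h and then washed.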

Sequence | binding signal
AACTTAATACGTAAACAATGTCAAATCGTCATCTCCACATCGGAGTCACCTAGTGCAG | 3250 fluorescence intensity (a.u.)
CTCCCATCTCCATCTCCCATCTCGCCTCAGCGAACTCCCCCGGAGTCACCTAGTGCAG | 25800 fluorescence intensity (a.u.)
AGTACTATATTGCGACGTGTACATGTGTTTGTTTAAGCCTCGGAGTCACCTAGTGCAG | 5890 fluorescence intensity (a.u.)
CACACACGCACACACACGACACGACAGCTTCGTGCTCAAGCGGAGTCACCTAGTGCAG | 4150 fluorescence intensity (a.u.)
GTCGAGTGAATTATAGGCGAACGTCTGACAAAGCAGTGACCGGAGTCACCTAGTGCAG | 3510 fluorescence intensity (a.u.)
ATGTATGGGCATATGCCTCTTGTAGCCACCACAGTCAAAGCGGAGTCACCTAGTGCAG | 3320 fluorescence intensity (a.u.)
AGGGGCCACACCGACCCTCCACGTCATCGTCCACGTCACCCGGAGTCACCTAGTGCAG | 40900 fluorescence intensity (a.u.)
CTACTGAAGCCAGCAAAGTTCAACAACATGACACAGTAGCCGGAGTCACCTAGTGCAG | 3440 fluorescence intensity (a.u.)
CAGCCGCGGCCGCACGGCCGCACAGAGAGGTTATTCGATTCGGAGTCACCTAGTGCAG | 3330 fluorescence intensity (a.u.)
ATGGATAGTAACTGCATGCCGGAGACACCGTATCATTGTACGGAGTCACCTAGTGCAG | 3220 fluorescence intensity (a.u.)
TGCAGCCTTCTTGTCCTCCTGTTCGTCAACAGCATCAGCACGGAGTCACCTAGTGCAG | 4550 fluorescence intensity (a.u.)
GAAGATCCCCACGAGCGTGAGGTAGTAGGCAAGCACGTGGCGGAGTCACCTAGTGCAG | 4220 fluorescence intensity (a.u.)
GCCGTCCACTGTTCCTCGCCGGTGCACTGGCTGACGTCGCCGGAGTCACCTAGTGCAG | 5580 fluorescence intensity (a.u.)
CGTCACAAGCCGTTAATGACACATCAGCAGGCACGCTCCACGGAGTCACCTAGTGCAG | 12000 fluorescence intensity (a.u.)
TAAGGGACCACCTATATGTTTGTCGATAAATTTTCTCCTACGGAGTCACCTAGTGCAG | 3370 fluorescence intensity (a.u.)
TTAATAGTATAGTAAGCAATTGTTGTATGAATTGGCTATTCGGAGTCACCTAGTGCAG | 27200 fluorescence intensity (a.u.)
CTCGGTCAAGTTCCCGTTACAAAATGACTCAACCACATCGCGGAGTCACCTAGTGCAG | 6260 fluorescence intensity (a.u.)
CGCCACCGCGCTCGCCCGCTGACGCCGCCTCGCCCTGCCGCGGAGTCACCTAGTGCAG | 5400 fluorescence intensity (a.u.)
CCCACGAGCGTATCGTAGCTGACGCTTCGTCTTGACGCCGCGGAGTCACCTAGTGCAG | 4290 fluorescence intensity (a.u.)
TTTGGGCTGCAATTCTGTTTGTCCTAGGTTGCATATGCTTCGGAGTCACCTAGTGCAG | 17300 fluorescence intensity (a.u.)
GTGTGCACCTAAGAATTTCTCCGGTGGATGATGTATGATGCGGAGTCACCTAGTGCAG | 3650 fluorescence intensity (a.u.)

Sequence | binding signal
TTTCGACCACCTTCATGGTCCATCCACATCATCCTTCTCACGGAGTCACCTAGTGCAG | 8240 fluorescence intensity (a.u.)
GGTAGAGCTTCAACTTTGATCCGTTGGTGTCATAACGTGTCGGAGTCACCTAGTGCAG | 3470 fluorescence intensity (a.u.)
AAAACTCGCGGCTCCCCTGCCTTCCACGTCTGAGAGGCAACGGAGTCACCTAGTGCAG | 3580 fluorescence intensity (a.u.)
GCAAAAGAAAATCACCAACTTGCTCACGCAGTCACGCTGCCGGAGTCACCTAGTGCAG | 3630 fluorescence intensity (a.u.)
GCTCTCCCGCCCCTCCCTTCTCCGGCGATCCATCCGCCGCCGGAGTCACCTAGTGCAG | 5890 fluorescence intensity (a.u.)
TTTAAAACCAGGTGGGCCCAGCGTGGCGCCTACACACCGCCGGAGTCACCTAGTGCAG | 4410 fluorescence intensity (a.u.)
CAGTAATTGATCCGACTGCTGATTCGATGGCAGTAATCTTCGGAGTCACCTAGTGCAG | 3850 fluorescence intensity (a.u.)
TAGATTACATCACGGCTGACGTGTACTTTGTCCGGGAGACCGGAGTCACCTAGTGCAG | 10500 fluorescence intensity (a.u.)
CCATGACGACCGGAACACGTATGCTGCACCCATGCCTCCACGGAGTCACCTAGTGCAG | 7600 fluorescence intensity (a.u.)
AGGTCTCACACTCCAAGCTCGCGCCACGTGTACGGCGAGACGGAGTCACCTAGTGCAG | 11000 fluorescence intensity (a.u.)
CCGCCTGCCTGTACACGCCGGCGCTTACAGTACACCCTACCGGAGTCACCTAGTGCAG | 3580 fluorescence intensity (a.u.)
CGTCTCATTCTCTCTCCACATTTCCTTTTGATCCCTTCTCCGGAGTCACCTAGTGCAG | 24300 fluorescence intensity (a.u.)
TTGATTCTGTATCAATTCTGTACTGGTGATGTATCAGGTTCGGAGTCACCTAGTGCAG | 3220 fluorescence intensity (a.u.)
AGTCATGCTATGAGGTGGTCAGGTGGACACTGTAGTATACCGGAGTCACCTAGTGCAG | 10100 fluorescence intensity (a.u.)
AACCCCAACTCGCCACGTGGGCAGTGTGGCCTCACAGGAACGGAGTCACCTAGTGCAG | 16400 fluorescence intensity (a.u.)
TTTATTATGACTTGATTTGTCATCAAATGTTCTTTAAGCACGGAGTCACCTAGTGCAG | 3620 fluorescence intensity (a.u.)
ATTTCCCTATCAATGATGACGTGTTGAATGCACTGATTTGCGGAGTCACCTAGTGCAG | 7620 fluorescence intensity (a.u.)
GTTAATGGAGGTATGGAAATTTGTGACACGTCTCCAAATGCGGAGTCACCTAGTGCAG | 7660 fluorescence intensity (a.u.)
GGGGCTTGGAGTGACGTTTGCTACTACTGACGGATTTTCACGGAGTCACCTAGTGCAG | 4710 fluorescence intensity (a.u.)
ATCTTGTCCCACTTGTCATACACACATTGTGACTTGGAGCCGGAGTCACCTAGTGCAG | 4120 fluorescence intensity (a.u.)
CCCTTTCTTTCATGTTGACCTCGTCACCCAACAACAACAACGGAGTCACCTAGTGCAG | 3550 fluorescence intensity (a.u.)

Some values from above:
binding signal, AACTTAATACGTAAACAATGTCAAATCGTCATCTCCACATCGGAGTCACCTAGTGCAG is entered as 3250 fluorescence intensity (a.u.)
binding signal, GGGGCTTGGAGTGACGTTTGCTACTACTGACGGATTTTCACGGAGTCACCTAGTGCAG is entered as 4710 fluorescence intensity (a.u.)

Reference: PMC7819943, “Rice protein-binding microarrays: a tool to detect cis-acting elements near promoter regions in rice”
